Measured values reported in patent US7718680B2 (priority 2004, dated 2010).
Some of these results come from one statement about several compounds together.

Test system: macrophages
Format: cell-based

SMILES	concentration protecting macrophages from LF-PA induced cell death [µM]
O=C(O)CN1C(=O)/C(=C/c2ccc(-c3ccc(Cl)c(Cl)c3)o2)SC1=S [BI-11B2]	≤ 1
O=C(O)CN1C(=O)/C(=C/c2ccc(-c3cc(C(F)(F)F)ccc3Cl)o2)SC1=S [BI-11B3]	≤ 1
